In PubChem BioAssay AID493014 (National Center for Advancing Translational Sciences (NCATS), 2011):
Among all 340,000 compounds or so, about 170 (0.05%) were called active. This list was built around the results that the source calls inconclusive (neither active nor inactive); the mix of calls is not that of the screen. Calls follow the shape of the dose curve; as a rule, active = well fitted inhibition curve with a large enough effect in the signal ratio, with a control signal flat (not every such curve was filed as active); inconclusive = small, poorly fitted or top-dose-only effect, or effect the other way, or a change in a side signal; inactive = flat fitted curve, though single readings scatter; the % refers to the signal ratio. Potencies beside an inconclusive call are fits to weak or partial responses and may not hold up.

Assay: qHTS Assay to Find Inhibitors of Chronic Active B-Cell Receptor Signaling;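 as to activity change, negative = inhibition: plate controls were basal doxycycline-induced cells for no effect and cells given 10 µM MG132 for full effect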
Details: ABC-DLBCL IkBa-CBG/CBR reporter, luminescence ratio (green luciferase fused to IkBa over red control in TMD8 lymphoma cells), 4 h; activity change, negative = inhibition: at 46.1 µM (top of the series) unless noted
Outline: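 Cell line TMD8 (human ABC DLBCL), stably expressing tet-inducible CBG68-IkBa fusion and CBR; IMDM/0.5% FBS; cpd up to 46 uM; dox induction, 4 h, 37C/5% CO2; dual luminescence; green/red ratio; MG132 control.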
Potency is read from the fitted curve at half-maximal effect.

Row | SMILES | activity change, negative = inhibition | Potency
1 | COc1ccc(CCNC(=O)c2ccccc2OCc2ccccc2)cc1 | inconclusive: -8.77% | –
2 | c1ccc2sc(NCC3CCCO3)nc2c1 (stereo unspecified) | inactive | –
3 | CCOC(=O)c1ccc(OCC2c3cc(OC)c(OC)cc3CCN2C(=O)Cc2ccc(F)cc2)cc1 (stereo unspecified) | inconclusive: 0% | –
4 | CC1CN=C(N(C(=O)Nc2ccccc2)c2ccc(F)cc2)S1 (stereo unspecified) | inconclusive: 16.7% | –
5 | Nc1cc(OC(=O)c2ccccc2Br)nn1S(=O)(=O)c1ccccc1 | inconclusive: 4.97% | –
6 | CCCCOC(=O)NS(=O)(=O)c1sc(CC(C)C)cc1-c1ccc(Cn2c(CC)nc3c(C)cc(C)nc32)cc1 | inconclusive: 9.41% | –
7 | COc1cc(/C=N/NC(=O)c2cccc3ccccc23)cc(OC)c1O | inactive | –
8 | COc1ccc(O)c(C(=O)c2cnn(-c3ccc(Cl)cc3)c2)c1 | inconclusive: 3.69% | –
9 | Fc1ccc(-c2cc3nc(-c4ccccc4)cc(N4CCOCC4)n3n2)cc1 | – | inconclusive: 20.6 µM [falling, partial curve]
10 | COc1ccccc1NC(=O)CSc1nnc(-c2ccccc2)o1 | inconclusive: -18.5% | –
11 | CC(C)C(=O)NC(c1ccco1)c1ccc2cccnc2c1O (stereo unspecified) | inconclusive: -17.9% | –
12 | Cc1nn(-c2ccccc2)cc1C(c1c(N)[nH]c(=S)[nH]c1=O)c1c(N)[nH]c(=S)[nH]c1=O | inconclusive: 12.7% | –
13 | Cn1nnnc1SCC(=O)NC1CCCc2ccccc21 (stereo unspecified) | inactive | –
14 | COc1ccc(CNC(=O)C2CC(C)=CCC2C(=O)O)cc1 (stereo unspecified) | inactive | –
15 | CCCC(=O)OCCNc1cc(SCCC(=O)OC)c2nonc2c1[N+](=O)[O-] | – | inconclusive: 29.1 µM [falling, single point]
16 | CC(NC(=O)C1CCN(C(=O)Nc2ccccc2)CC1)c1ccccc1Cl (stereo unspecified) | inconclusive: 6.89% | –
17 | Cc1ccccc1OCC(O)Cn1c(Br)nc2c1c(=O)[nH]c(=O)n2C (stereo unspecified) | inconclusive: -0.945% | –
18 | CNc1c([N+](=O)[O-])cnn1-c1ccccc1Cl | inconclusive: -3.2% | –
19 | COc1ccc(OCc2nnc(NC(=O)Nc3ccc(F)cc3)s2)cc1 | inconclusive: 9.07% | –
20 | CC(C)(C)NC(=O)NC(=O)COC(=O)C1c2ccccc2Oc2ccccc21 | inconclusive: -5.89% | –
21 | CN1CCN(C2CC(=O)N(c3ccc4c(c3)OCCO4)C2=O)CC1 (stereo unspecified) | inconclusive: 4.21% | –

Row | SMILES | activity change, negative = inhibition | Potency
22 | COC(=O)CC1C(=O)NCCN1C(=S)NC(=O)CCc1ccccc1 (stereo unspecified) | inactive | –
23 | CNC(=O)Cn1nc(-c2ccc(C)c(S(=O)(=O)N(C)C)c2)c2ccccc2c1=O | inconclusive: 5.71% | –
24 | CCOC(=O)c1ccc(-n2c(N)c(C(=O)OC)c3nc4ccccc4nc32)cc1 | inactive | –
25 | CCN1CCN(Cc2c(O)ccc3c2O/C(=C\C=C\c2ccccc2)C3=O)CC1 | – | inconclusive: 18.4 µM [falling, partial curve]
26 | CCOc1ccc(CN(C)C(=O)CNC(=O)C2CCCCC2)cc1OC | inconclusive: 10.8% | –
27 | O=C(NCCc1ccccc1)c1nc(CS(=O)(=O)c2ccc(Cl)cc2)no1 | inactive | –
28 | Cc1cccc(Cn2cccc2/C=C2/C(=N)N3C=CSC3=NC2=O)c1 | – | inconclusive: 9.2 µM [rising, partial curve, poor fit]
29 | C=CCN1C(=O)C2(OCCCO2)c2cccc(C)c21 | inactive | –
30 | O=C(N/N=C\c1cccc(F)c1)c1ccc(Cn2cc(Br)c([N+](=O)[O-])n2)o1 | – | inconclusive: 12.6 µM [falling, partial curve]
31 | Cc1ccc2nc(-c3ccccc3)cc(C(=O)NCCCn3ccnc3)c2c1 | inactive | –
32 | CS(=O)(=O)Nc1cccc(C2=NN(C(=O)c3ccc(F)cc3)C(c3cccs3)C2)c1 (stereo unspecified) | – | inconclusive: 35.5 µM [falling, single point]
33 | Cn1c(Oc2ccc3c(c2)OCO3)nc2c1c(=O)n(Cc1ccccc1)c(=O)n2C | inactive | –
34 | COc1cc2c(cc1Cl)/C(=C\CCN(C)C)c1ccccc1S2 | – | inconclusive: 18.4 µM [falling, single point]
35 | COc1ccccc1Nc1nc(N)nc(CN2CCN(Cc3ccc4c(c3)OCO4)CC2)n1 | – | inconclusive: 2.82 µM [falling, full curve, poor fit]
36 | CC(C)(C)C(=O)/C(=C\c1cccc([N+](=O)[O-])c1)n1cncn1 | – | inconclusive: 29.1 µM [rising, single point]
37 | CCOC(=O)c1c(C)oc2c1cc(NS(=O)(=O)c1ccc(C(=O)O)cc1)c1ccccc12 | inconclusive: -11.9% | –
38 | Cc1ccc(C)c(NC(=O)CN(C)C(=O)Cn2c(=O)oc3ccccc32)c1 | inconclusive: -23.7% | –
39 | Cc1ccc(NC(=O)c2cccc(S(=O)(=O)N3CCCC3)c2)nc1 | inconclusive: 14.9% | –
40 | O=C(NCc1nnc(SCC(=O)N2CCN(c3ccccc3)CC2)o1)c1c(F)cccc1F | inconclusive: -6.92% | –
41 | O=C(c1ccc(N2CCCC2)c([N+](=O)[O-])c1)N1CCc2ccccc2C1 | inconclusive: 2.45% | –
42 | O=C(O)c1cccc(Cn2c(Cl)c(/C=N/Nc3ccccc3)sc2=O)c1 | inconclusive: 20.1% | –

Row | SMILES | activity change, negative = inhibition | Potency
43 | O=C(/C=C/c1cccs1)c1ccc(NC(=O)c2ccccc2F)cc1 | – | inconclusive: 23.1 µM [falling, partial curve, poor fit]
44 | Cc1nn(-c2ccccc2)c(Cl)c1/C=C1\SC(=S)NC1=O | inconclusive: 16.7% | –
45 | O=C(Nc1ccc(F)cc1)c1cc(S(=O)(=O)N2CCOCC2)cs1 | inactive | –
46 | Cc1ccc(S(=O)(=O)n2nc(OC(=O)C(C)(C)C)cc2N)cc1 | – | inconclusive: 15.8 µM [falling, single point]
47 | Cc1c(C(=S)Nc2ccccc2)cnn1-c1ccccc1 | – | inconclusive: 35.5 µM [falling, single point]
48 | O=C(O)CCCCCNc1nc(-c2ccccc2)nc2ccccc12 | inconclusive: 2.93% | –
49 | CCOc1ccccc1Nc1nc2ccccc2[nH]1 | inconclusive: -10.7% | –
50 | O=C(Nc1ccc2nc3n(c(=O)c2c1)CCCC3)c1cccc([N+](=O)[O-])c1 | inconclusive: 10.4% | –
51 | O=C(NNC(=O)c1ccc([N+](=O)[O-])o1)c1ccccc1 | – | inconclusive: 35.5 µM [rising, single point]
52 | CS(=O)(=O)N1CCN(c2nc3ccccc3s2)CC1 | inconclusive: 3.76% | –
53 | CC(=O)Nc1ccc2nc(NC(=O)c3ccco3)sc2c1 | – | inconclusive: 31.6 µM [rising, single point]
54 | CCC(=O)NC(c1ccccc1OC)c1ccc2cccnc2c1O (stereo unspecified) | inconclusive: -8.78% | –
55 | Oc1cccc2ccc(N3CCOCC3)nc12 | inconclusive: -0.619% | –
56 | CN(Cc1ccccc1)C(=O)c1nc2ccccn2c1CNCCCOc1cccnc1 | – | inconclusive: 2.51 µM [falling, partial curve, poor fit]
57 | Cc1ccnc(NC(=O)CNC(=O)c2ccc(Br)o2)c1 | inconclusive: -23.5% | –
58 | CC(C)(C)[C@H]1COC(=O)[C@@H](Cc2ccc(F)cc2)CC/C=C/C[C@@H](CC(=O)N[C@@H](CO)Cc2ccccc2)C(=O)N1 | inactive | –
59 | O=C(CSc1nc2c(sc3ccccc32)c(=O)n1-c1ccccc1)NCc1ccco1 | inconclusive: 0.339% | –
60 | C/C(CCc1ccc2c(c1)OCO2)=N\N=C(/N)SC1CC(=O)N(c2ccc(Cl)cc2)C1=O (stereo unspecified) | inconclusive: -1.04% | –
61 | COC(=O)c1ccsc1NC(=O)CSc1nnnn1-c1ccccc1SC | inconclusive: -7.96% | –
62 | CCOc1ccc(-c2noc(CCCC(=O)NC3CCCC3)n2)cc1OC | – | inconclusive: 17.8 µM [falling, partial curve]
63 | Cc1ccc(/C=N/NC(=O)c2ccco2)s1 | – | inconclusive: 35.5 µM [falling, single point]

Row | SMILES | activity change, negative = inhibition | Potency
64 | Cc1cc(N2CCCCC2)n2ncc(-c3ccccc3)c2n1 | inconclusive: 5.46% | –
65 | Cc1cc(C)c(C)c(S(=O)(=O)NNC(=O)c2cccc(S(=O)(=O)N3CCOCC3)c2)c1C | inconclusive: -1.5% | –
66 | Cc1sc2ncnc(N(C)Cc3cccs3)c2c1C | – | inconclusive: 0.116 µM [falling, full curve, poor fit]
67 | Cc1nc2ccc(NC(=O)c3ccc([N+](=O)[O-])cc3)cc2s1 | inconclusive: 5.87% | –
68 | Cc1cc(C(=O)COC(=O)c2cccn2C)c(C)n1Cc1ccco1 | inconclusive: 0.163% | –
69 | CCOC(=O)N/N=C\C=C\c1ccc2c(c1)OCO2 | inconclusive: -16.8% | –
70 | N#Cc1ccccc1NCc1ccccc1 | inconclusive: 0.254% | –
71 | COc1ccc2c(c1)OC[C@H]1[C@H]2N2C(=O)CN(Cc3ccc(Cl)cc3)C(=O)[C@@]2(C)[C@H]1c1ccccc1 | inconclusive: 0.0954% | –
72 | O=C(Nc1ccccc1OC(F)F)c1cc2c(s1)CCC2 | inconclusive: 16.8% | –
73 | CCOC(=O)c1cc2c(=O)c3ccccc3oc2nc1C | inconclusive: 11.1% | –
74 | CCN(CC)c1ccc2c(Cl)c(Br)c(=O)oc2c1 | – | inconclusive: 11.2 µM [rising, partial curve]
75 | Cc1sc(NC(=O)C2=COCCO2)c(C#N)c1C | inconclusive: 4.3% | –
76 | O=C(c1ccco1)N(Cc1cccnc1)c1nc2ccc(F)cc2s1 | inactive | –
77 | COC(=O)c1ccc(Cn2cc(Cl)cn2)cc1 | inconclusive: -0.91% | –
78 | O=C1CCN(Cc2ccccc2)CCN1CCOc1ccccc1 | inactive | –
79 | c1ccc(OCc2nc3ccccc3[nH]2)cc1 | – | inconclusive: 29.1 µM [falling, single point]
80 | Cc1c(C(=O)N(Cc2ccccc2)C(C)C)oc2ccc(S(=O)(=O)N3CCOCC3)cc12 | inconclusive: -5.26% | –
81 | COc1ccc(NC(=O)c2ccccc2NC(=O)c2ccco2)cc1 | inconclusive: -23.8% | –
